# From patent US20220120732A1 (Ramot at Tel-Aviv University Ltd., priority 2019, published 2022)
# Assay: peptide synthesis
# Conditions: whole synthesis
substance,measurement,value
"PEPTIDE1{C.G.H.H.L.L.R.P.R.R.R.K.R.P.H.S.I.P.T.P.I.L.I.F.R.S.P}|PEPTIDE2{C.G.H.H.L.L.R.P.R.R.R.K.R.P.H.S.I.P.T.P.I.L.I.F.R.S.P}$PEPTIDE1,PEPTIDE2,1:R3-1:R3$$$V2.0",purity (crude or final not stated),97%

# Some peptides are written in HELM: one residue between dots, names in brackets for other building blocks, links after the first $. The same purity stands for every peptide and may come from a single statement.
